Results published in patent publication US5244883A (The Administrators of the Tulane Educational Fund, priority 1990, dated 1993).

Assay: general procedure: Boc solid-phase peptide synthesis; benzhydrylamine (BHA) resin or chloromethylated polystyrene resin 1% cross-linked with divinylbenzene; DIC
Details: cyclisation step, analytical HPLC

Phe-Glu-Trp-Ala-Val-Gly-His-Leu-psi -Tpi-NH2
final HPLC purity: >95%
